Assay results: publication PMC12448474
No constants are given. Whether binding was seen depends on the method and setting. Some results given as binding are weak or reduced against the parent protein; the word gives no strength.

Molecular target: T1, human MON1A (residues 98−652) (human) (UniProt Q86VX9)
T1 sequence: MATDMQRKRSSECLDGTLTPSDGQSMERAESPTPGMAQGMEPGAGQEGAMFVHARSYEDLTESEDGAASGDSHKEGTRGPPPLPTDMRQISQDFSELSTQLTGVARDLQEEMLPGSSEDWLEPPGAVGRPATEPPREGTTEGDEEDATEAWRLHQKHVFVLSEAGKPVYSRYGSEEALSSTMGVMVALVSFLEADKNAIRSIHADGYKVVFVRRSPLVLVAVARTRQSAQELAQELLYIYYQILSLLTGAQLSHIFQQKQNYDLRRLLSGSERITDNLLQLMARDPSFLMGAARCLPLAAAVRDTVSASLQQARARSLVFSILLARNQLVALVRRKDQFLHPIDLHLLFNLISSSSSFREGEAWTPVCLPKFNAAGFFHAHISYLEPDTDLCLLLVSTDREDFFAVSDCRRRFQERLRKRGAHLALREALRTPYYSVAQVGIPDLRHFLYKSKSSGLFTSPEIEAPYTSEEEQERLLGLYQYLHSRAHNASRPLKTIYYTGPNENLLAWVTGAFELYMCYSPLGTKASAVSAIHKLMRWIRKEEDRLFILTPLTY
Test: cryo-EM structure; HsMON1A (98−652)−CCZ1−RAB7A^N125I complex co-expressed in Sf9 and purified, tags removed; single-particle reconstruction at 2.85 Å, C1 symmetry; both purified

binding: binds
B1: human CCZ1 full length (residues 1−482) (protein, UniProt P86791 1-482)
chain: MAAAAAGAGSGPWAAQEKQFPPALLSFFIYNPRFGPREGQEENKILFYHPNEVEKNEKIRNVGLCEAIVQFTRTFSPSKPAKSLHTQKNRQFFNEPEENFWMVMVVRNPIIEKQSKDGKPVIEYQEEELLDKVYSSVLRQCYSMYKLFNGTFLKAMEDGGVKLLKERLEKFFHRYLQTLHLQSCDLLDIFGGISFFPLDKMTYLKIQSFINRMEESLNIVKYTAFLYNDQLIWSGLEQDDMRILYKYLTTSLFPRHIEPELAGRDSPIRAEMPGNLQHYGRFLTGPLNLNDPDAKCRFPKIFVNTDDTYEELHLIVYKAMSAAVCFMIDASVHPTLDFCRRLDSIVGPQLTVLASDICEQFNINKRMSGSEKEPQFKFIYFNHMNLAEKSTVHMRKTPSVSLTSVHPDLMKILGDINSDFTRVDEDEEIIVKAMSDYWVVGKKSDRRELYVILNQKNANLIEVNEEVKKLCATQFNNIFFLD
